PubChem BioAssay AID1259264, Sanger Institute | 2017
Here is an unselected part of 794 reagents tested. Of all reagents, 15 (1.9%) got an active call. 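Calls rest on knock-down alone at z-score below -3; synergy scores with the three drugs do not decide them.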 No viability above 1 is reported: the scale is capped. Not stated in the record: the amount of reagent, the time to read-out.

- Screen: 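Kinase-wide knock-down to find genes that strengthen targeted drug effects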 (primary screen)
- System: CL40 human colorectal cancer cells
- Reagent: siRNA pool against human genes
- Treatment: DMSO, or an anchor drug: BYL719 at 1 µM, cetuximab at 5 µg/ml, or trametinib at 10 nM
- Measurement: 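Viability as a fraction of non-targeting pool control (replicates averaged), control-based robust z-score, plus averaged synergy for each drug: BYL719 1 µM, cetuximab 5 µg/ml, trametinib 10 nM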
- Scale: robust z-score, siRNA alone and viability, siRNA alone: higher = more viable cells; synergy score with BYL719: higher = stronger combined killing with BYL719; synergy score with cetuximab: higher = stronger combined killing with cetuximab; synergy score with trametinib: higher = stronger combined killing with trametinib
- Hit rule: 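Essential call: siRNA with no drug reaches a robust z under -3 (low cell count); drug synergy scores do not affect it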
- Meaning of the calls: active = essential (lowers viability alone); inactive = not essential

no.	target gene	robust z-score, siRNA alone	viability, siRNA alone (fraction of control)	synergy score with BYL719	synergy score with cetuximab	synergy score with trametinib	activity call
1	ADPGK (GeneID 83440)	-0.858	0.9	-0.141	-0.0959	-0.0145	inactive
2	EFNA5 (GeneID 1946)	0.539	1	-0.156	-0.0174	0.115	inactive
3	CKM (GeneID 1158)	0.433	0.992	-0.162	0.028	0.0862	inactive
4	LRRK2 (GeneID 120892)	0.539	1	-0.156	-0.0174	0.0471	inactive
5	NRBP1 (GeneID 29959)	0.321	0.984	-0.0566	-0.0328	0.104	inactive
6	AKT2 (GeneID 208)	0.539	1	-0.112	-0.0174	0.119	inactive
7	TLK1 (GeneID 9874)	0.426	0.992	0.00473	0.022	0.143	inactive
8	PI4KB (GeneID 5298)	0.539	1	-0.0661	0.0335	0.21	inactive
9	SOX9 (GeneID 6662)	0.415	0.991	0.0135	-0.0262	0.0535	inactive
10	CDKL1 (GeneID 8814)	-0.372	0.935	-0.0266	-0.0816	0.0775	inactive
11	GRK2 (GeneID 156)	0.539	1	-0.156	-0.0174	0.13	inactive
12	STK35 (GeneID 140901)	0.539	1	-0.0441	-0.0174	0.119	inactive
13	TEX14 (GeneID 56155)	0.539	1	-0.156	-0.0174	-0.0069	inactive
14	TBK1 (GeneID 29110)	0.539	1	-0.149	-0.00511	0.113	inactive
15	ACO1 (GeneID 48)	0.539	1	0.0474	-0.0041	0.114	inactive
16	MYLK2 (GeneID 85366)	0.309	0.983	0.00469	0.0509	0.12	inactive
17	GALK2 (GeneID 2585)	-0.596	0.919	-0.152	-0.0752	0.0399	inactive
18	PMVK (GeneID 10654)	-1.17	0.878	-0.143	-0.0296	0.0363	inactive
19	CSNK1D (GeneID 1453)	0.539	1	-0.00636	-0.0174	0.124	inactive
20	SPHK2 (GeneID 56848)	-0.346	0.937	-0.101	-0.0798	0.166	inactive
21	WNK4 (GeneID 65266)	-1.48	0.855	-0.183	-0.126	-0.0549	inactive
22	TRIB3 (GeneID 57761)	-1.47	0.856	-0.0656	-0.0154	-0.0369	inactive
23	DYRK2 (GeneID 8445)	-0.905	0.897	-0.157	-0.119	0.0993	inactive
24	PRKG2 (GeneID 5593)	0.216	0.977	-0.0271	0.0125	0.0651	inactive
25	MAP2K4 (GeneID 6416)	0.539	1	-0.0621	-0.0174	0.124	inactive
26	TGFBR2 (GeneID 7048)	0.539	1	-0.102	0.0241	0.1	inactive
27	STK32A (GeneID 202374)	0.539	1	-0.0957	0.0419	-0.0712	inactive
28	NEK4 (GeneID 6787)	-0.0683	0.956	-0.0488	-0.0499	0.0775	inactive
29	RPS6KA2 (GeneID 6196)	-0.958	0.893	-0.00406	0.0172	0.137	inactive
30	PI4K2A (GeneID 55361)	0.204	0.976	-0.0849	-0.041	-0.0795	inactive
31	TWF1 (GeneID 5756)	0.259	0.98	-0.0956	-0.0372	0.0683	inactive
32	PAK2 (GeneID 5062)	-0.314	0.939	-0.153	0.00139	0.0733	inactive
33	LRRK1 (GeneID 79705)	0.539	1	-0.0305	-0.0174	0.141	inactive
34	NME7 (GeneID 29922)	0.539	1	-0.144	-0.0174	0.032	inactive
